This note sets out measurements from publication PMC9502983.

No constants are given. Whether binding was seen depends on the method and setting. Binding seen in cells or lysates may run through a third protein. A result given as binding can be weak or reduced; the word gives no strength. Where a sequence is shown, tags or fusion partners need not be part of it.

In the assay the target is HA-tagged N-terminal CBP (aa1–494) (silkworm). Briefly: co-IP; BmE cells cotransfected with HA-CBP (aa1-494) and FLAG-EcR, treated with 2.5 uM 20E or DMSO for 12 h; lysis buffer 25 mM Tris pH 8, 27.5 mM NaCl, 20 mM KCl, 0.5% NP40, with or without 20E; IP with anti-HA overnight at 4 °C, protein A/G Dynabeads; Western blot with anti-FLAG, anti-HA …. In general terms: In western blotting, separated proteins are transferred to a membrane and probed.

B1: FLAG-tagged EcR (receptor, UniProt P49881 1-606)
chain: MRVENVDNVSFALNGRADEWCMSVETRLDSLVREKSEVKAYVGGCPSVITDAGAYDALFDMRRRWSNNGGFPLRMLEESSSEVTSSSALGLPPAMVMSPESLASPEYRALELWSYDDGITYNTAQSLLGACNMQQQQLQPQQPHPAPPTLPTMPLPMPPTTPKSENESMSSGREELSPASSINGCSADADARRQKKGPAPRQQEELCLVCGDRASGYHYNALTCEGCKGFFRRSVTKNAVYICKFGHACEMDMYMRRKCQECRLKKCLAVGMRPECVIQEPSKNKDRQRQKKDKGILLPVSTTTVEDHMPPIMQCDPPPPEAARIHEVVPRYLSEKLMEQNRQKNIPPLSANQKSLIARLVWYQEGYEQPSDEDLKRVTQTWQSDEEDEESDLPFRQITEMTILTVQLIVEFAKGLPGFSKISQSDQITLLKASSSEVMMLRVARRYDAASDSVLFANNKAYTRDNYRQGGMAYVIEDLLHFCRCMFAMGMDNVHFALLTAIVIFSDRPGLEQPSLVEEIQRYYLNTLRIYIINQNSASSRCAVIYGRILSVLTELRTLGTQNSNMCISLKLKNRKLPPFLEEIWDVAEVATTHPTVLPPTNPVVL
Turning to B1, the binding entry is recorded as “binds”.
